Key:
[1] = Melittin binding to tethered POPC liposomes (Biacore SPR); conditions: data not shown
Experimental: Liposomes were made by first evaporating the solvent, chloroform, from the POPC lipids using a flow of nitrogen gas. The dried lipids were then kept under the flow of nitrogen gas for at least one hour after which HEPES-2 was added to yield a 4 mg/ml concentration of POPC. The dissolved POPC lipids were vortexed for at least 30 min to yield multi-laminar liposomes. Uni-laminar liposomes were produced using a mini extruder and polycarbonate membranes with pore size of 50 nm from Avanti Polar Lipids® with a 50 nm pore size. […] The liposomes were stored under nitrogen gas at 4° C. until use (within 2 days).
A mixture (300 μl) of HS-PEG (200 μg/ml) and HS-PEG-Biotin (20 μg/ml), dissolved in HEPES-2, were injected over the Biacore® Au sensor chip at a flow rate of 5 μl/min. Then a mixture (150 μl) of NeutrAvidin (40 μg/ml) and Biotin-DNA (0.7 μM) was injected and bound to HS-PEG-Biotin at the surface.
POPC liposomes (2 mg/ml, in HEPES-2) containing cholesterol-DNA tags (3 DNA tags per liposome) were injected at a flow rate of 5 μl/min. The end of the DNA-part of the cholesterol-DNA tag is single-stranded and complementary in sequence to the Biotin-DNA at the surface enabling tethering of the liposomes to the sensor surface.
The reversible binding of melittin was measured in the Biacore® instrument directly after the tethering of POPC liposomes was finished. […]

[2] = Melittin pore mediated sucrose uptake into tethered liposomes (SPR refractive index); assay type: physicochemical; conditions: 0.1 M sucrose after 40 μM melittin
Experimental: After tethering of NeutrAvidin/Biotin-DNA the following injections were made in sequential order; 0.1 M sucrose, 2 mg/ml cholesterol-DNA tagged POPC-liposomes, 0.1 M sucrose, 40 μM melittin, 0.1 M sucrose, 0.1 M sucrose, 0.1 M sucrose. All samples were dissolved in HEPES-2.
A simple method for real-time and label-free uptake measurements of analytes across membranes at a biosensor surface would be of great value when investigating for example membrane transporters. Here we wanted to test if it was possible to measure the uptake of an analyte, sucrose, through the melittin pore by simply detecting the change in refractive index of the solution inside the liposome caused by the analyte as it is taken up.
Adding sucrose changes the refractive index of the solution in the detection volume, i.e. the volume corresponding to the evanescent field above the sensor surface, which is manifested as a shift in RU. […]
The amplitude of the uptake decrease from S3 to S5, which is explained by a decreasing number of liposomes having pores. […] The expected RU of the 7400 sucrose molecules (0.1 M) inside the liposome can be calculated from the obtained response of immobilizing the liposome itself (RU=6790). […] Since only ˜85% of the liposomes have pores the expected value is 480/0.85≈560 RU, which is in good agreement with the measured response of 530 RU from the S3 injection.

Structure (SMILES)	Unspecific binding (to biosensor surface without liposomes) relative to binding to the liposome membrane surface [1]	measured response from the S3 injection [2] [RU]
CC[C@H](C)[C@H](NC(=O)CN)C(=O)NCC(=O)N[C@@H](C)C(=O)N[C@H](C(=O)N[C@@H](CC(C)C)C(=O)N[C@@H](CCCCN)C(=O)N[C@H](C(=O)N[C@@H](CC(C)C)C(=O)N[C@H](C(=O)N[C@H](C(=O)NCC(=O)N[C@@H](CC(C)C)C(=O)N1CCC[C@H]1C(=O)N[C@@H](C)C(=O)N[C@@H](CC(C)C)C(=O)N[C@H](C(=O)N[C@@H](CO)C(=O)N[C@@H](Cc1c[nH]c2ccccc12)C(=O)N[C@H](C(=O)N[C@@H](CCCCN)C(=O)N[C@@H](CCCNC(=N)N)C(=O)N[C@@H](CCCCN)C(=O)N[C@@H](CCCNC(=N)N)C(=O)N[C@@H](CCC(N)=O)C(=O)N[C@@H](CCC(N)=O)C(N)=O)[C@@H](C)CC)[C@@H](C)CC)[C@@H](C)O)[C@@H](C)O)C(C)C)C(C)C [melittin]	less than 5%	
OC[C@H]1O[C@@](CO)(O[C@H]2O[C@H](CO)[C@@H](O)[C@H](O)[C@H]2O)[C@@H](O)[C@@H]1O [sucrose]		530
